The record followed here is paper PMC11827640.

Sequences of proteins named here, by UniProt entry; tags and fusion partners are left off.
UniProt Q13535: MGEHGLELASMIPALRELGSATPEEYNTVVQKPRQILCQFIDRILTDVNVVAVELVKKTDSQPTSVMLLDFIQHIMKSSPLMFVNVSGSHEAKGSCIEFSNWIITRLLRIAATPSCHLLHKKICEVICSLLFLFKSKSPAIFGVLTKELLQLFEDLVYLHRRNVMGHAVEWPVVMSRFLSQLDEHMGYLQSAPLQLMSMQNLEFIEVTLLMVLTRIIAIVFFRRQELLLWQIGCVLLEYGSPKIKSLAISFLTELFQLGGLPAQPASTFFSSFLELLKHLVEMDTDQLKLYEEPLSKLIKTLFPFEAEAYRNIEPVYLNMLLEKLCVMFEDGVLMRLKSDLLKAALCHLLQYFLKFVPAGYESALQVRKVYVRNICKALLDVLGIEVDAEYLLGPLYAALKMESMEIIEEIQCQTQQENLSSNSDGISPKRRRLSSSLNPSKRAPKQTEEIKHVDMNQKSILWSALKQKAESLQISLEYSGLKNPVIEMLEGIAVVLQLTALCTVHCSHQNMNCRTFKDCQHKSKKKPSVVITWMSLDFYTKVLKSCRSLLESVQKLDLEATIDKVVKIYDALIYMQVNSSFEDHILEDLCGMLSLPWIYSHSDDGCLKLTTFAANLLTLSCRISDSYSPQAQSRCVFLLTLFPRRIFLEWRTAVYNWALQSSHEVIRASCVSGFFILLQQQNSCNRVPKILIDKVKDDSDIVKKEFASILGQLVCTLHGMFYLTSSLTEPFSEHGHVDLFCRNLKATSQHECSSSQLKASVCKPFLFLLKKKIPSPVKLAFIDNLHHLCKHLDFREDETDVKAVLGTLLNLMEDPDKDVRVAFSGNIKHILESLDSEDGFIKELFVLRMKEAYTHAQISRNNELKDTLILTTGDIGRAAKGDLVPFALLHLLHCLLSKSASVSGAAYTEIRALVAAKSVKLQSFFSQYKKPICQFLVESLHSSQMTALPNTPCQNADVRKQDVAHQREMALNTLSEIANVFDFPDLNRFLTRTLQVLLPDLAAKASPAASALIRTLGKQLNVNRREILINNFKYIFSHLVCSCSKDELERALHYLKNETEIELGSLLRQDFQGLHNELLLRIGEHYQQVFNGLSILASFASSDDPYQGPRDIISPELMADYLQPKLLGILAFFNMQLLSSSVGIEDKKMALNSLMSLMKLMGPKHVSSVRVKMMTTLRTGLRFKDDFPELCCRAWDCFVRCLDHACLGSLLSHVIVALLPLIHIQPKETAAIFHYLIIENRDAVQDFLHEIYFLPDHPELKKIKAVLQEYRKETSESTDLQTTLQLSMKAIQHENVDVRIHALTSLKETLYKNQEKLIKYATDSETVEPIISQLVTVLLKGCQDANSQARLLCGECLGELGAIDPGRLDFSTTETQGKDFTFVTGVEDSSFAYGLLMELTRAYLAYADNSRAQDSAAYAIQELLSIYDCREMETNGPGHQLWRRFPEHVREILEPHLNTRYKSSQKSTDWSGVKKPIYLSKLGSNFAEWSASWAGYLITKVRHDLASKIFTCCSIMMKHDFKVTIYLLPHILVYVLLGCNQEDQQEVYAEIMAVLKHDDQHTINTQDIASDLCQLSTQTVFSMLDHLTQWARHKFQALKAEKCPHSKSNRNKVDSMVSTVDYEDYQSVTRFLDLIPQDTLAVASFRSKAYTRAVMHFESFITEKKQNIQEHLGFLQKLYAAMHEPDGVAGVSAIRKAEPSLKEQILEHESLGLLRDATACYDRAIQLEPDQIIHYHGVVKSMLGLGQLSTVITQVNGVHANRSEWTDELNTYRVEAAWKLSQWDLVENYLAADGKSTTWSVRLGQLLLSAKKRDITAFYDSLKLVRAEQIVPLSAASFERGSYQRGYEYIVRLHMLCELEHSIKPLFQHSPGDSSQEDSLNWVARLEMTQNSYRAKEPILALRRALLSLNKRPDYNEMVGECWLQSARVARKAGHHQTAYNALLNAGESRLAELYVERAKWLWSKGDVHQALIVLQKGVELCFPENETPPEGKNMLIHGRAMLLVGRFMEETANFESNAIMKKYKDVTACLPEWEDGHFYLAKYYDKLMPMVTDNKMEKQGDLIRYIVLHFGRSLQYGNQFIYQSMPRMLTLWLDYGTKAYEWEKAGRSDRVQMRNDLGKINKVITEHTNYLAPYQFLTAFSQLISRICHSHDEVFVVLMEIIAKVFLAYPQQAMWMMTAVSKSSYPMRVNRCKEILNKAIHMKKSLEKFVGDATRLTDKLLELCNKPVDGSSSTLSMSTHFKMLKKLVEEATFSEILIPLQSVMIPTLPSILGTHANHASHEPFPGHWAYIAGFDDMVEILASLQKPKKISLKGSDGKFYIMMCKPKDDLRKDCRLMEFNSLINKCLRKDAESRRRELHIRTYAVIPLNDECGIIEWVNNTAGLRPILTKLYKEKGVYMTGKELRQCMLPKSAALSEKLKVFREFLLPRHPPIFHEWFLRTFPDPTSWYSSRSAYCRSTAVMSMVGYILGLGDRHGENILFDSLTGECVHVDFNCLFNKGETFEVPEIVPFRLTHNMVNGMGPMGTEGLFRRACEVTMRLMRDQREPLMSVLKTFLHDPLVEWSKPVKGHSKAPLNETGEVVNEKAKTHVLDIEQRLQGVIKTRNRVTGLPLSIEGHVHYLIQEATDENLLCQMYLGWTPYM
UniProt P21333: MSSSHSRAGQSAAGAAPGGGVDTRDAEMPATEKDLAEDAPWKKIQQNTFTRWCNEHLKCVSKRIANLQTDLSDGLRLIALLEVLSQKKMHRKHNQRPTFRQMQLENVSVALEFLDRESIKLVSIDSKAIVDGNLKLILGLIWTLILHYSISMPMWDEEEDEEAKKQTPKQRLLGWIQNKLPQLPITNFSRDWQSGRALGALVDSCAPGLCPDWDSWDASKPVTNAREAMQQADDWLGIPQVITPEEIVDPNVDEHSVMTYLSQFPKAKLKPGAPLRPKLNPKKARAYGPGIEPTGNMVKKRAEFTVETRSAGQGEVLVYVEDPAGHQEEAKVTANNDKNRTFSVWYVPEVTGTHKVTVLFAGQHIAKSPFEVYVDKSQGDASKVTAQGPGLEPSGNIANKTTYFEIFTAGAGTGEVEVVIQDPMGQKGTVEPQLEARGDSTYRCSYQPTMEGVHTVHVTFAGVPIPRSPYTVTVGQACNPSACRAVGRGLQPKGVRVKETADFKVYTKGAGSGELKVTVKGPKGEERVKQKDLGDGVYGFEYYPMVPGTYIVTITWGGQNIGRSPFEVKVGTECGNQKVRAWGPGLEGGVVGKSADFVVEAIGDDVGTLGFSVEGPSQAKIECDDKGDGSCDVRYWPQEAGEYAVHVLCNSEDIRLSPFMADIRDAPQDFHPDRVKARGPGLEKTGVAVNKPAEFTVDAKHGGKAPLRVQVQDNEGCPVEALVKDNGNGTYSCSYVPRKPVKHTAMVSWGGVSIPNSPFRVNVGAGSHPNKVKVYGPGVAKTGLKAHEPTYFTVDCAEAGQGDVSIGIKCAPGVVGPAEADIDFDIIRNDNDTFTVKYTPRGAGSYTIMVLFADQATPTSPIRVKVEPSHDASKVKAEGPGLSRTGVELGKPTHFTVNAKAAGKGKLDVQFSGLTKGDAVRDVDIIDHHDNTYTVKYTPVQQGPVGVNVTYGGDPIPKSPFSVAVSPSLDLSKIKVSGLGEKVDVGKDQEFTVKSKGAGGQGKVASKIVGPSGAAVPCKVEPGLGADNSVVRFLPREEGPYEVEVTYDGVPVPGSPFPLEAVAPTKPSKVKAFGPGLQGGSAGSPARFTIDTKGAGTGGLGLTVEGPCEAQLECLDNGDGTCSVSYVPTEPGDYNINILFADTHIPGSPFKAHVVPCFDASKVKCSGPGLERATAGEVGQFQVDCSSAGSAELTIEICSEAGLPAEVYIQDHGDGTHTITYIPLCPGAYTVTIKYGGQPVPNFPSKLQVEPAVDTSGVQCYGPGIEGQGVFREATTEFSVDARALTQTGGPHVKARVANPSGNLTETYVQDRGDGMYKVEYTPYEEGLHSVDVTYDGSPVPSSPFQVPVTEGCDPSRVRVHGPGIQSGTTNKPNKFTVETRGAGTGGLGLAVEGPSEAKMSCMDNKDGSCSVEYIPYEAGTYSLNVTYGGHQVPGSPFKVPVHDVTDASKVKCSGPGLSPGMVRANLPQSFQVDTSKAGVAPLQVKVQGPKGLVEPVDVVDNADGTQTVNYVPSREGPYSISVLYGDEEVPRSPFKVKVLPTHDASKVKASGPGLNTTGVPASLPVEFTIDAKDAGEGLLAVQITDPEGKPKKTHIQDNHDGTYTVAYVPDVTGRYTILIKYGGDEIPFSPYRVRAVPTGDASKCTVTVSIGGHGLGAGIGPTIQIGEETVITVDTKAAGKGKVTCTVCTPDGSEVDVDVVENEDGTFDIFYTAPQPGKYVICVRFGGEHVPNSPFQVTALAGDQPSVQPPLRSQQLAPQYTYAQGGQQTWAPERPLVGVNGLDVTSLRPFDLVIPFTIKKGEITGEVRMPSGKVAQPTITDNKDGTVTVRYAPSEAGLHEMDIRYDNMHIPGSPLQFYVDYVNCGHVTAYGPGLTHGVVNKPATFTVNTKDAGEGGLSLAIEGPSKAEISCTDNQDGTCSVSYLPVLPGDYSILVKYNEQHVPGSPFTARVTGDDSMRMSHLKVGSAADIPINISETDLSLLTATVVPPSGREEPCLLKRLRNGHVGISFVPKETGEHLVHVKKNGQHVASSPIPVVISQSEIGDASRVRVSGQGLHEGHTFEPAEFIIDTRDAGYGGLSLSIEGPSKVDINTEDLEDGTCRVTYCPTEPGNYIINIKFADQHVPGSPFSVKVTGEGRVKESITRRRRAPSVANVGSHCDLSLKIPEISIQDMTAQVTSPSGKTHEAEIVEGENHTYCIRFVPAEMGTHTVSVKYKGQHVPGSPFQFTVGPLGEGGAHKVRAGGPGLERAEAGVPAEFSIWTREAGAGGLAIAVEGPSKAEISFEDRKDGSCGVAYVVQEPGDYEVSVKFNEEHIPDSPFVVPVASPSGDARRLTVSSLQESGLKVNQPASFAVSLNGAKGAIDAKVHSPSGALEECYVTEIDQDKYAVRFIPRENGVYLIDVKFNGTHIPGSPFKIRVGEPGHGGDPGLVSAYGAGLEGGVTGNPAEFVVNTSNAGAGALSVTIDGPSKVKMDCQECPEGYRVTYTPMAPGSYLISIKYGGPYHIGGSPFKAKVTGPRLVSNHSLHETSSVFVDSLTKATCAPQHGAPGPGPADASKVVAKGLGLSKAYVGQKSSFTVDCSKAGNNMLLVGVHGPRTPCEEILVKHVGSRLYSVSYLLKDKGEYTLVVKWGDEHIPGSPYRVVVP
UniProt O43707: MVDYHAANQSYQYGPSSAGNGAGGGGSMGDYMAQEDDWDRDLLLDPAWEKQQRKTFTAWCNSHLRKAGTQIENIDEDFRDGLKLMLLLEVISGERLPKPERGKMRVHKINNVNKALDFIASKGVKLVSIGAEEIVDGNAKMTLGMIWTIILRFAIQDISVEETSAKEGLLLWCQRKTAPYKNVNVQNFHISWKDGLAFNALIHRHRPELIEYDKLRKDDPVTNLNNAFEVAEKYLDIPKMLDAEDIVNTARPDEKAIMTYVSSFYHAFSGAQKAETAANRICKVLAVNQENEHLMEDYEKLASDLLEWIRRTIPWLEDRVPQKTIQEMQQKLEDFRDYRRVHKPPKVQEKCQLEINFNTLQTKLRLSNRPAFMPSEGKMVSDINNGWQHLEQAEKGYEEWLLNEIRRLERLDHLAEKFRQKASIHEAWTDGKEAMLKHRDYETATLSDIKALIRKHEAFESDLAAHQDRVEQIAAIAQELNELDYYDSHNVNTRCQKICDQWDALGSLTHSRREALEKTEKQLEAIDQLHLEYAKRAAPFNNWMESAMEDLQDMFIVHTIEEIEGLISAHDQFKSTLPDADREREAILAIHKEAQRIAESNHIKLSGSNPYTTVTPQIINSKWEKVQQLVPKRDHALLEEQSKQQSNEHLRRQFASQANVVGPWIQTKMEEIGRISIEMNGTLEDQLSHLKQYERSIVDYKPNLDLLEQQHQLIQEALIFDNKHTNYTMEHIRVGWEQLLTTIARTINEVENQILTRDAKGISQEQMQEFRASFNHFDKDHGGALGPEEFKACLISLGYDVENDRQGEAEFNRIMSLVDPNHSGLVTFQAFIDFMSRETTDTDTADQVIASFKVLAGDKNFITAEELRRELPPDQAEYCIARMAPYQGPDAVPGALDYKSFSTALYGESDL

These are yes or no findings as the source states them, for the method shown. Binding seen in cells or lysates may run through a third protein. Some entries that bind do so weakly or less than the wild type.

In test [1] the target is T1, RASSF1A (human (endogenous in HeLa)) (UniProt Q9NS23).
T1 sequence: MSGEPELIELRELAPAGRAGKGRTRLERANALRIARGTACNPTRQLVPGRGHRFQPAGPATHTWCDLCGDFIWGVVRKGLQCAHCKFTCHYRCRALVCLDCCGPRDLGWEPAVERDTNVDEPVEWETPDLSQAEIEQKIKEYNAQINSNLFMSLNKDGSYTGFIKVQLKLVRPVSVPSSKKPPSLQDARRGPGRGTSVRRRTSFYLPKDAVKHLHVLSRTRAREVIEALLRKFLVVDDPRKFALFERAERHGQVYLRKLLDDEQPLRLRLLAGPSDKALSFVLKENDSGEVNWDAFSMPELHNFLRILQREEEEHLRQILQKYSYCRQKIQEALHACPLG
Kind of test: co-IP; HeLa nuclear extracts incubated with anti-RASSF1A overnight at 4°C, protein G Dynabeads, RIPA washes, immunoblot; cells under mechanical stimulation. (A western blot detects proteins with antibodies after separation by electrophoresis.)

Test [2] concerns the target T1, RASSF1A (human (endogenous in HeLa)). Kind of test: co-IP; endogenous RASSF1A immunoprecipitated from 500 μg total HeLa protein with 2 μg anti-RASSF1A overnight at 4°C, protein G Dynabeads, immunoblot; cells with or without mechanical stress.

For “Ataxia telangiectasia and Rad3-related protein (ATR) (from UniProt Q13535 1-2644) (enzyme)”, the binding result in test [1] is on record as “binds”. Regarding Filamin-A (from UniProt P21333 1-2647), the binding entry in test [2] is given as “binds”. On the same count and under the same terms, as for “α-actinin 4 (ACTN4) (from UniProt O43707 1-911)”, the entry is “binds”.
